Substitutions are numbered along the chain they refer to. No constants are given. Whether binding was seen depends on the method and setting. In cells and extracts the contact can be indirect. Some binding calls cover weakened binding; strength is not graded here. For some of these results: Where a sequence is shown, tags or fusion partners need not be part of it.
Columns and labels:
[1] = molecular target: T1, Flag-STRAP (WT), serine-threonine kinase receptor-associated protein (UniProt Q9Y3F4); experiment: co-IP; HEK293T co-transfected with tagged STRAP and tagged SIRT7 (Figure 3D: Flag-STRAP, HA-SIRT7, with or without HA-CBP); whole-cell lysates in BC100 buffer; anti-Flag M2 beads; Western blotting
T1 sequence: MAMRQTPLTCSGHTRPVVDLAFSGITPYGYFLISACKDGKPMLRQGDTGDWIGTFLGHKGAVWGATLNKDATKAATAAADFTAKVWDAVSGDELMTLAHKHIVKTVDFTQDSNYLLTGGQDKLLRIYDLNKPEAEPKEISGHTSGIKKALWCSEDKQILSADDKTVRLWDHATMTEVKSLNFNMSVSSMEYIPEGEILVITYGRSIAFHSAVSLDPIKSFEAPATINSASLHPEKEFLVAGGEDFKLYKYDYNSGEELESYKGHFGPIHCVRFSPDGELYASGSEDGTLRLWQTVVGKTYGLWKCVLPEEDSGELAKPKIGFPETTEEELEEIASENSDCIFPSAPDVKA

Sequences of proteins named here, by UniProt entry; tags and fusion partners are left off.
UniProt Q9NRC8: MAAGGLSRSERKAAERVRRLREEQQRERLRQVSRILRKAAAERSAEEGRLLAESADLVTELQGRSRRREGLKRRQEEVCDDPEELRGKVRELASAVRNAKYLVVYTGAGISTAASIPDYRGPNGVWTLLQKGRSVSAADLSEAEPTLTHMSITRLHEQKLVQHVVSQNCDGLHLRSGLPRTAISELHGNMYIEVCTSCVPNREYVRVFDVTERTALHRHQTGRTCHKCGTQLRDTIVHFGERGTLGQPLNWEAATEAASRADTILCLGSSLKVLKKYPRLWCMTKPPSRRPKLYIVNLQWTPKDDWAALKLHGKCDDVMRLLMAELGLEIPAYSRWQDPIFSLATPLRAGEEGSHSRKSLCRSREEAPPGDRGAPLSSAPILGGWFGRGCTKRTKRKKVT

[2] = molecular target: T2, Flag-STRAP-3KR expressed in HCT116 cells (UniProt Q9Y3F4); experiment: co-IP; HCT116 transfected with Flag-STRAP WT, 3KR or 3KQ for 24 h; whole-cell lysates immune-precipitated with M2 beads; Western blotting for p53
T2 sequence: T1 sequence with K147R, K148R, K156R

[3] = molecular target: T3, Flag-STRAP-WT expressed in HCT116 cells (UniProt Q9Y3F4); experiment: as above
T3 sequence: T1 sequence

[4] = molecular target: T4, endogenous STRAP (HEK293T) (human (endogenous in HEK293T)) (UniProt Q9Y3F4); experiment: co-IP; endogenous proteins; whole HEK293T cell lysates immune-precipitated with control IgG, anti-SIRT7 or anti-STRAP antibodies; Western blotting
T4 sequence: T1 sequence

Substance: HA-SIRT7, sirtuin7 (from UniProt Q9NRC8 1-400) (enzyme)
- binding [1]: binds

Substance: p53 (endogenous, HCT116) (from UniProt P04637 1-393)
- binding [2]: binds
- binding [3]: binds

Substance: endogenous SIRT7 (HEK293T) (from UniProt Q9NRC8 1-400) (enzyme)
- binding [4]: binds
